The numbers were not newly measured in patent US20020045664A1, “Estrogen mimetics lacking reproductive tract effects” (The University of Georgia Research Foundation, Inc, priority 1999, published 2002), which cites them from elsewhere.

Molecules are shown by their SMILES.

In this data set the test system is MCF-7 cells. The settings on record: concentration at which growth stimulation was 50% maximal; read-out: MCF-7 Cell Growth EC50; cited from earlier work.

Regarding `CC/C(=C(/c1ccccc1)c1ccc(OCCN(C)C)cc1)c1ccccc1` [cis-tamoxifen], the EC50 – broadly, the concentration needed to bring the measured effect to its halfway point – is 11 nM.

Take `CC/C(=C(\c1ccccc1)c1ccc(OCCN(C)C)cc1)c1ccccc1` [trans-tamoxifen, (Z)-2-[4-(1,2-diphenyl-1-butenyl)phenoxy]-N,N-dimethylethanamine]: the EC50 was 0.11 nM.
